We go through three molecules from article doi:10.1101/2024.08.15.608058.

By UniProt entry, the sequences of proteins in these tests, tags left out.
UniProt Q5TEA3: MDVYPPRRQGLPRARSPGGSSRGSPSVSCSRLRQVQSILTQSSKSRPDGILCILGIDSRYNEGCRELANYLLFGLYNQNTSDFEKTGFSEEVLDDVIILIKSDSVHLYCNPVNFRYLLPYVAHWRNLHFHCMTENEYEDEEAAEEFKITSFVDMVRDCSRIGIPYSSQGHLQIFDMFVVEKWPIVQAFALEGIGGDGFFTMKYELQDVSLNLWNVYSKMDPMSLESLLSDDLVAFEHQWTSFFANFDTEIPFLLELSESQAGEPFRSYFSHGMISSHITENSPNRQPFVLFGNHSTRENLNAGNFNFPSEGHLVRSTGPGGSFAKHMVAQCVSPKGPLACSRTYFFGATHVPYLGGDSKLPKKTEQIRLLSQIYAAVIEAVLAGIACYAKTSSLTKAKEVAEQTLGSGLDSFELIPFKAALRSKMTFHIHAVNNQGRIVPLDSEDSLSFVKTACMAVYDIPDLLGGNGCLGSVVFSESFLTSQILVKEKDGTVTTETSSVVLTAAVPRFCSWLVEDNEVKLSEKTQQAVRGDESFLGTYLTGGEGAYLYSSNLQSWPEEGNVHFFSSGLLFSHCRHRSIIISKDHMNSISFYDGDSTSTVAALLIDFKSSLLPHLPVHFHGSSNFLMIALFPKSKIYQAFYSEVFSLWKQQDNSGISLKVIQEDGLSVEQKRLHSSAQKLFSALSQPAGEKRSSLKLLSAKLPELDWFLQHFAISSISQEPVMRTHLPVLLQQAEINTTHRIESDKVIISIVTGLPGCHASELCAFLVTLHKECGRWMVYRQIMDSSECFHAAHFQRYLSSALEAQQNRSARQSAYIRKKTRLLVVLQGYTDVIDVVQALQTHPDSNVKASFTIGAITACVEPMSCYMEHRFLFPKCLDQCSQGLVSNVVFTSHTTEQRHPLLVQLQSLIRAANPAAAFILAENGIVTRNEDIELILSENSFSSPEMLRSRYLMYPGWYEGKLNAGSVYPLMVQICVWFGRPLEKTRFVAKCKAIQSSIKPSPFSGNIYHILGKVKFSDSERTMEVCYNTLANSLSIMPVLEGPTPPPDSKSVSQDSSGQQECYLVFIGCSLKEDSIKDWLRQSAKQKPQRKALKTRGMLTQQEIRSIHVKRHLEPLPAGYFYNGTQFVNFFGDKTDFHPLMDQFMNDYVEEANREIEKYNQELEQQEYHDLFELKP

Results are given in words; binding and its absence hold for the method and conditions named. Binding seen in cells or lysates may run through a third protein. Some entries that bind do so weakly or less than the wild type.

First the molecules themselves.
B1: IFT74 (protein, UniProt Q96LB3 1-600)
chain: MASNHKSSAARPVSRGGVGLTGRPPSGIRPLSGNIRVATAMPPGTARPGSRGCPIGTGGVLSSQIKVAHRPVTQQGLTGMKTGTKGPQRQILDKSYYLGLLRSKISELTTEVNKLQKGIEMYNQENSVYLSYEKRAETLAVEIKELQGQLADYNMLVDKLNTNTEMEEVMNDYNMLKAQNDRETQSLDVIFTERQAKEKQIRSVEEEIEQEKQATDDIIKNMSFENQVKYLEMKTTNEKLLQELDTLQQQLDSQNMKKESLEAEIAHSQVKQEAVLLHEKLYELESHRDQMIAEDKSIGSPMEEREKLLKQIKDDNQEIASMERQLTDTKEKINQFIEEIRQLDMDLEEHQGEMNQKYKELKKREEHMDTFIETFEETKNQELKRKAQIEANIVALLEHCSRNINRIEQISSITNQELKMMQDDLNFKSTEVQKSQSTAQNLTSDIQRLQLDLQKMELLESKMTEEQHSLKSKIKQMTTDLEIYNDLPALKSSGEEKIKKLHQERMILSTHRNAFKKIMEKQNIEYEALKTQLQENETHSQLTNLERKWQHLEQNNFAMKEFIATKSQESDYQPIKKNVTKQIAEYNKTIVDALHSTSGN
B2: DNAI2 (protein, UniProt Q9GZS0 1-605)
chain: MEIVYVYVKKRSEFGKQCNFSDRQAELNIDIMPNPELAEQFVERNPVDTGIQCSISMSEHEANSERFEMETRGVNHVEGGWPKDVNPLELEQTIRFRKKVEKDENYVNAIMQLGSIMEHCIKQNNAIDIYEEYFNDEEAMEVMEEDPSAKTINVFRDPQEIKRAATHLSWHPDGNRKLAVAYSCLDFQRAPVGMSSDSYIWDLENPNKPELALKPSSPLVTLEFNPKDSHVLLGGCYNGQIACWDTRKGSLVAELSTIESSHRDPVYGTIWLQSKTGTECFSASTDGQVMWWDIRKMSEPTEVVILDITKKEQLENALGAISLEFESTLPTKFMVGTEQGIVISCNRKAKTSAEKIVCTFPGHHGPIYALQRNPFYPKNFLTVGDWTARIWSEDSRESSIMWTKYHMAYLTDAAWSPVRPTVFFTTRMDGTLDIWDFMFEQCDPTLSLKVCDEALFCLRVQDNGCLIACGSQLGTTTLLEVSPGLSTLQRNEKNVASSMFERETRREKILEARHREMRLKEKGKAEGRDEEQTDEELAVDLEALVSKAEEEFFDIIFAELKKKEADAIKLTPVPQQPSPEEDQVVEEGEEAAGEEGDEEVEEDLA
B3: IFT81 (protein, UniProt Q8WYA0 1-676)
chain: MSDQIKFIMDSLNKEPFRKNYNLITFDSLEPMQLLQVLSDVLAEIDPKQLVDIREEMPEQTAKRMLSLLGILKYKPSGNATDMSTFRQGLVIGSKPVIYPVLHWLLQRTNELKKRAYLARFLIKLEVPSEFLQDETVADTNKQYEELMEAFKTLHKEYEQLKISGFSTAEIRKDISAMEEEKDQLIKRVEHLKKRVETAQNHQWMLKIARQLRVEKEREEYLAQQKQEQKNQLFHAVQRLQRVQNQLKSMRQAAADAKPESLMKRLEEEIKFNLYMVTEKFPKELENKKKELHFLQKVVSEPAMGHSDLLELESKINEINTEINQLIEKKMMRNEPIEGKLSLYRQQASIISRKKEAKAEELQEAKEKLASLEREASVKRNQTREFDGTEVLKGDEFKRYVNKLRSKSTVFKKKHQIIAELKAEFGLLQRTEELLKQRHENIQQQLQTMEEKKGISGYSYTQEELERVSALKSEVDEMKGRTLDDMSEMVKKLYSLVSEKKSALASVIKELRQLRQKYQELTQECDEKKSQYDSCAAGLESNRSKLEQEVRRLREECLQEESRYHYTNCMIKNLEVQLRRATDEMKAYISSDQQEKRKAIREQYTKNTAEQENLGKKLREKQKVIRESHGPNMKQAKMWRDLEQLMECKKQCFLKQQSQTSIGQVIQEGGEDRLIL

The experiment concerns the target DNAAF9 (human Shulin), endogenous in human airway epithelial cells (human (endogenous in HAECs)) (UniProt Q5TEA3). The experiment is described as follows: co-IP.
On to B1, for which the binding result is given as “binds”.

Turning to B2, the binding entry is listed as “binds”.

B3: the binding result was “binds”.
